Measurements published in PubChem BioAssay AID493014 (National Center for Advancing Translational Sciences (NCATS), 2011).
The whole screen tested about 340,000 compounds, of which about 170 (0.05%) were called active. This list was built around the results that the source calls inconclusive (neither active nor inactive); the mix of calls is not that of the screen. Calls come from the whole dose curve; as a rule, active = well fitted inhibition curve with a large enough effect in the signal ratio, with a control signal flat (not every such curve was filed as active); inconclusive = small, poorly fitted or top-dose-only effect, or effect the other way, or a change in a side signal; inactive = flat fitted curve, though single readings scatter; the % refers to the signal ratio. Potencies of inconclusive entries are doubtful fits and often do not repeat.
Potency is the fitted concentration of half-maximal effect.

Assay: qHTS Assay to Find Inhibitors of Chronic Active B-Cell Receptor Signaling;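 for activity change, negative = inhibition: plate controls were basal doxycycline-induced cells for no effect and cells given 10 µM MG132 for full effect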
Conditions: ABC-DLBCL IkBa-CBG/CBR reporter, luminescence ratio (green luciferase fused to IkBa over red control in TMD8 lymphoma cells), 4 h; activity change, negative = inhibition: at 46.1 µM (top of the series)
Method in brief: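 Compounds up to 46 uM were incubated four hours with TMD8 cells whose green CBG68 luciferase is fused to IkappaBalpha; red CBR luminescence normalised the signal, and concentration-effect curves were fitted to fusion, red and ratio data.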
For `O=C(NCC(=O)N(CC1CCCO1)C1(C(=O)NC2CCCC2)CCCCC1)c1ccccc1` (configuration not stated), the Potency was inconclusive: 0.0326 µM [rising, full curve]. With `CCOc1ccc(S(=O)(=O)Oc2ccc3ccccc3c2)cc1` the activity change, negative = inhibition was inconclusive: 16.6%. With `CCCN1CNC(=S)N(c2ccc(C)cc2C)C1` the “activity change, negative = inhibition” value was inactive: -0.163%. In the case of `CCOC(=O)c1c(-c2cccc(C)c2)csc1NC(=O)C1CC=CCC1C(=O)O` (configuration not stated), the activity change, negative = inhibition was inconclusive: 6.72%. In the case of `COc1ccc(OC)c(NC(=O)Cn2cc(C(=O)c3ccco3)c3ccccc32)c1`, the activity change, negative = inhibition was inconclusive: -6.76%. For `Cc1ccc(S(=O)(=O)N2CCCCC2)cc1NC(=O)Cn1cc(C(F)(F)F)ccc1=O`, the activity change, negative = inhibition was inconclusive: -19.8%. In the case of `CCc1ccc2oc(-c3ccc(OC)cc3)cc(=Nc3c(C)n(C)n(-c4ccccc4)c3=O)c2c1`, the Potency was inconclusive: 35.5 µM [falling, single point]. With `C/C(=N\NC(=O)c1cccnc1)c1cc(C)oc1C` the Potency was inconclusive: 20.6 µM [falling, partial curve, poor fit]. In the case of `COc1ccc(CC(=O)OCN2C(=O)c3ccccc3C2=O)cc1OC`, the activity change, negative = inhibition was inconclusive: 2.84%. With `O=C(OCc1ccc(Cl)cc1)c1cccnc1Cl` the activity change, negative = inhibition was inconclusive: 1.88%. With `O=C(CCCn1c(=O)[nH]c2ccccc2c1=O)NCc1ccccc1Cl` the “activity change, negative = inhibition” value was inactive: -5.22%. With `CCNC(=O)c1ccc(CSc2ccc(Cl)cc2)cc1` the activity change, negative = inhibition was inconclusive: 5.29%. For `O=C(Nc1ccccc1N1CCCCC1)C1CC(=O)N(c2ccccc2F)C1` (configuration not stated), the activity change, negative = inhibition was inconclusive: 6.61%. With `Cc1ccc(SC(C)C(=O)Nc2cccc(N(C)S(C)(=O)=O)c2)cc1` (configuration not stated) the Potency was inconclusive: 23.1 µM [falling, partial curve, poor fit]. With `COc1cc(/C=N/NC(=O)c2cncc(Br)c2)ccc1OC(=O)c1ccc2c(c1)OCO2` the activity change, negative = inhibition was inconclusive: 1.02%. For `Cc1nc(-c2ccc(NC(=O)C3CC3)cc2)cs1`, the activity change, negative = inhibition was inconclusive: -11.5%. For `O=C(Nc1ccc(Cc2ccncc2)cc1)c1ccc(N2CCOCC2)c([N+](=O)[O-])c1`, the activity change, negative = inhibition was inconclusive: -8.03%. In the case of `CCOc1ccc(NC(=O)c2ccc3nccnc3c2)cc1`, the activity change, negative = inhibition was inconclusive: -19.8%. For `O=C(COC(=O)c1cccc2ccccc12)NCCCc1ccccc1`, the Potency was inconclusive: 13 µM [rising, partial curve, poor fit]. In the case of `COc1cccc(CC(=O)Nc2nc(C)cs2)c1`, the “activity change, negative = inhibition” value was inactive: 0.195%. In the case of `CCC(Sc1nc2cc3c(cc2c(=O)n1Cc1ccco1)OCO3)C(=O)Nc1cccc(OC)c1` (configuration not stated), the “activity change, negative = inhibition” value was inactive: 2.85%. With `Cc1cccc(CSc2nc3ccncc3n2CC(=O)Nc2cc(C)cc(C)c2)c1` the activity change, negative = inhibition was inconclusive: -6.71%.
